{
  "sequences": {"note": "Chains of the proteins cited; added tags and fusions are not shown.", "UniProt Q9GZP8": "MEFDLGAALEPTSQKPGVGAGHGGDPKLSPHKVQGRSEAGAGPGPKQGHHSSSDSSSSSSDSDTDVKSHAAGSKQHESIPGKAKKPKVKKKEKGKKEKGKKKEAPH", "UniProt P06748": "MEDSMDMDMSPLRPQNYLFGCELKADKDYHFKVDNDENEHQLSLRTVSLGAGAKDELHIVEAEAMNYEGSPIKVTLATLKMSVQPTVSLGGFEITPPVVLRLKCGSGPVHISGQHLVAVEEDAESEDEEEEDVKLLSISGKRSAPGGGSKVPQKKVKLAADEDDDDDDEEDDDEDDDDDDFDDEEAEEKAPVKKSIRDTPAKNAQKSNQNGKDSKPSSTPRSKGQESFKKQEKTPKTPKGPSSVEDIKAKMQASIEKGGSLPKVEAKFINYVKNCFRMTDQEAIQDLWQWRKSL"},
  "source": "paper PMC10547647",
  "key": {"[1]": {"target": "GFP-tagged IMUP (immortalization-upregulated protein) (UniProt Q9GZP8)", "assay": "affinity purification with mass spectrometry; GFP-tagged IMUP overexpressed; IP with GFP-Trap Magnetic Agarose, SDS-PAGE, candidate bands cut and identified by LC/MS"}, "[2]": {"target": "Immortalization-upregulated protein (IMUP), endogenous (human (endogenous in BxPC-3)) (UniProt Q9GZP8)", "assay": "affinity purification with mass spectrometry; endogenous IMUP; IP with anti-IMUP agarose, SDS-PAGE, candidate bands cut and identified by LC/MS"}},
  "note": "Results are given in words; binding and its absence hold for the method and conditions named. Binding seen in cells or lysates may run through a third protein. A yes stands for co-enrichment or nearness to the bait. Other partners may have been found.",
  "data": [
    {"substance": "Nucleophosmin (NPM1), endogenous (from UniProt P06748 1-294)", "values": [
      {"measurement": "binding", "setting": "[1]", "value": "binds"},
      {"measurement": "binding", "setting": "[2]", "value": "binds"}
    ]}
  ]
}
